Laboratory results from patent US10563263B2, “Genetic polymorphisms associated with statin response and cardiovascular diseases, methods of detection and uses thereof” (CELERA CORPORATION, priority 2010, dated 2020).
This continues a long series; more values of the same kind are listed elsewhere.

System: CHD
Assay: Meta-analysis of CARE and WOSCOPS combined, synergy index, CHD endpoint
Assay type: in vivo, human
Source text: Tables 4-5 provide meta-analyses of CARE and WOSCOPS combined (2nd section of each table) for two endpoints (CHD and CVD) and three genetic models (dominant, recessive, and additive), as well as logistic regression analyses of CARE (3rd section of each table) and WOSCOPS (4th section of each table) individually.
Tables 12 and 17 provide results of meta-analysis of the CARE and WOSCOPS sample sets combined by direct genotyping and by imputing genotypes.
“P” indicates the p-value, and “P(R)” (or “P.R.”) indicates the p-value random effect. Both of these are p-values corresponding to a statistical test of whether the combined synergy index is equal to one but use different assumptions to derive the p-value. “P” is calculated using a fixed effects model, and “P(R)” is calculated using a random effects model.
“OR” indicates the odds ratio (synergy index) calculated from a fixed effects model, and “OR(R)” (or “OR.R.”) indicates the odds ratio (synergy index) calculated from a random effects model.

## CC[C@H](C)C(=O)O[C@H]1C[C@H](O)C=C2C=C[C@H](C)[C@H](CC[C@@H](O)C[C@@H](O)CC(=O)O)[C@H]21 [Pravastatin, pravastatin]
rs8026245 allele G GENOTYPIC Imputed, P(R) 0.0001769
  OR(R): 3.0849
rs8026245 allele G RECESSIVE Imputed, P 0.0001739
  OR: 3.0436
rs8026245 allele G RECESSIVE Imputed, P(R) 0.0001739
  OR(R): 3.0436
rs8060725 allele A ADDITIVE Genotyped, P 0.001967
  OR: 0.7414
rs8060725 allele A ADDITIVE Genotyped, P(R) 0.001967
  OR(R): 0.7414
rs8103016 allele A ADDITIVE Genotyped, P 1.97E−05
  OR: 1.5542
rs8103016 allele A ADDITIVE Genotyped, P(R) 1.97E−05
  OR(R): 1.5542
rs8103016 allele A DOMINANT Genotyped, P 5.37E−05
  OR: 1.6315
rs8103016 allele A DOMINANT Genotyped, P(R) 5.37E−05
  OR(R): 1.6315
rs8104182 allele G ADDITIVE Imputed, P 8.91E−05
  OR: 1.5032
rs8104182 allele G ADDITIVE Imputed, P(R) 8.91E−05
  OR(R): 1.5032
rs8104182 allele G DOMINANT Imputed, P 0.000187
  OR: 1.5764
rs8104182 allele G DOMINANT Imputed, P(R) 0.000187
  OR(R): 1.5764
rs8129461 allele G ADDITIVE Imputed, P(R) 0.002668
  OR(R): 0.4555
rs8129461 allele G DOMINANT Imputed, P(R) 0.01352
  OR(R): 0.4432
rs8130021 allele G ADDITIVE Imputed, P(R) 0.002668
  OR(R): 0.4555
rs8130021 allele G DOMINANT Imputed, P(R) 0.01352
  OR(R): 0.4432
rs9284851 allele A GENOTYPIC Imputed, P 6.86E−05
  OR: 2.0519
rs9284851 allele A GENOTYPIC Imputed, P(R) 6.86E−05
  OR(R): 2.0519
rs9292827 allele A vs G (ref)
  Meta-analysis OR: 0.34
rs9293464 allele T RECESSIVE Imputed, P 3.03E−05
  OR: 0.5422
rs9293464 allele T RECESSIVE Imputed, P(R) 3.03E−05
  OR(R): 0.5422
rs9295154 allele G DOMINANT Genotyped, P 0.0003436
  OR: 1.5908
rs9295154 allele G DOMINANT Genotyped, P(R) 0.0007175
  OR(R): 1.5981
rs9310221 allele A DOMINANT Imputed, P 6.72E−05
  OR: 1.6779
rs9310221 allele A DOMINANT Imputed, P(R) 6.93E−05
  OR(R): 1.6777
rs9310699 allele T GENOTYPIC Genotyped, P 7.91E−05
  OR: 2.0683
rs9310699 allele T GENOTYPIC Genotyped, P(R) 7.91E−05
  OR(R): 2.0683
rs9310700 allele C ADDITIVE Imputed, P 8.64E−05
  OR: 1.4077
rs9310700 allele C ADDITIVE Imputed, P(R) 8.64E−05
  OR(R): 1.4077
rs9310700 allele C GENOTYPIC Imputed, P 3.31E−05
  OR: 2.2015
rs9310700 allele C GENOTYPIC Imputed, P(R) 3.31E−05
  OR(R): 2.2015
rs9310701 allele G GENOTYPIC Imputed, P 7.67E−05
  OR: 2.0358
rs9310701 allele G GENOTYPIC Imputed, P(R) 7.67E−05
  OR(R): 2.0358
rs9310704 allele G GENOTYPIC Imputed, P 4.87E−05
  OR: 2.1011
rs9310704 allele G GENOTYPIC Imputed, P(R) 4.87E−05
  OR(R): 2.1011
rs9319185 allele C GENOTYPIC Imputed, P 5.38E−05
  OR: 2.2836
rs9319185 allele C GENOTYPIC Imputed, P(R) 5.38E−05
  OR(R): 2.2836
rs9319186 allele T GENOTYPIC Imputed, P 7.93E−05
  OR: 2.2431
rs9319186 allele T GENOTYPIC Imputed, P(R) 7.93E−05
  OR(R): 2.2431
rs9327555 allele T DOMINANT Imputed, P 0.000699
  OR: 0.6712
rs9327555 allele T DOMINANT Imputed, P(R) 0.000699
  OR(R): 0.6712
rs9403367 allele C DOMINANT Imputed, P 6.11E−05
  OR: 0.6205
rs9403367 allele C DOMINANT Imputed, P(R) 6.11E−05
  OR(R): 0.6205
rs9419608 allele G RECESSIVE Imputed, P 4.08E−05
  OR: 1.7425
rs9419608 allele G RECESSIVE Imputed, P(R) 4.08E−05
  OR(R): 1.7425
rs9426437 allele T DOMINANT Imputed, P 5.00E−05
  OR: 0.607
rs9426437 allele T DOMINANT Imputed, P(R) 5.00E−05
  OR(R): 0.607
rs9454967 allele G DOMINANT Imputed, P 5.94E−05
  OR: 1.9576
rs9454967 allele G DOMINANT Imputed, P(R) 5.94E−05
  OR(R): 1.9576
rs9487284 allele A vs G (ref)
  Meta-analysis OR: 0.64
rs9635511 allele T DOMINANT Imputed, P 7.73E−05
  OR: 0.618
rs9635511 allele T DOMINANT Imputed, P(R) 7.73E−05
  OR(R): 0.618
rs9812206 allele G ADDITIVE Imputed, P 5.80E−06
  OR: 0.5122
rs9812206 allele G ADDITIVE Imputed, P(R) 5.80E−06
  OR(R): 0.5122
rs9812206 allele G DOMINANT Imputed, P 4.29E−06
  OR: 0.4876
rs9812206 allele G DOMINANT Imputed, P(R) 4.29E−06
  OR(R): 0.4876
rs9813552 allele G ADDITIVE Imputed, P 4.13E−05
  OR: 0.5495
rs9813552 allele G ADDITIVE Imputed, P(R) 4.13E−05
  OR(R): 0.5495
rs9813552 allele G DOMINANT Imputed, P 3.19E−05
  OR: 0.5265
rs9813552 allele G DOMINANT Imputed, P(R) 3.19E−05
  OR(R): 0.5265
rs9815037 allele T ADDITIVE Imputed, P 1.99E−05
  OR: 0.5261
rs9815037 allele T ADDITIVE Imputed, P(R) 1.99E−05
  OR(R): 0.5261
rs9815037 allele T DOMINANT Imputed, P 1.13E−05
  OR: 0.4982
rs9815037 allele T DOMINANT Imputed, P(R) 1.13E−05
  OR(R): 0.4982
rs9819583 allele T GENOTYPIC Imputed, P 7.12E−05
  OR: 2.0778
rs9819583 allele T GENOTYPIC Imputed, P(R) 7.12E−05
  OR(R): 2.0778
rs9825349 allele A ADDITIVE Imputed, P 1.98E−05
  OR: 0.5259
rs9825349 allele A ADDITIVE Imputed, P(R) 1.98E−05
  OR(R): 0.5259
rs9825349 allele A DOMINANT Imputed, P 1.13E−05
  OR: 0.4982
rs9825349 allele A DOMINANT Imputed, P(R) 1.13E−05
  OR(R): 0.4982
rs9833118 allele G ADDITIVE Imputed, P 9.63E−05
  OR: 1.3977
rs9833118 allele G ADDITIVE Imputed, P(R) 9.63E−05
  OR(R): 1.3977
rs9833118 allele G GENOTYPIC Imputed, P 5.01E−05
  OR: 2.1101
rs9833118 allele G GENOTYPIC Imputed, P(R) 5.01E−05
  OR(R): 2.1101
rs9834217 allele T ADDITIVE Imputed, P 2.21E−05
  OR: 0.5279
rs9834217 allele T ADDITIVE Imputed, P(R) 2.21E−05
  OR(R): 0.5279
rs9834217 allele T DOMINANT Imputed, P 1.26E−05
  OR: 0.5002
rs9834217 allele T DOMINANT Imputed, P(R) 1.26E−05
  OR(R): 0.5002
rs9838563 allele C GENOTYPIC Imputed, P 7.67E−05
  OR: 2.0358
rs9838563 allele C GENOTYPIC Imputed, P(R) 7.67E−05
  OR(R): 2.0358
rs9840460 allele T ADDITIVE Imputed, P 2.08E−05
  OR: 0.5268
rs9840460 allele T ADDITIVE Imputed, P(R) 2.08E−05
  OR(R): 0.5268
rs9840460 allele T DOMINANT Imputed, P 1.18E−05
  OR: 0.499
rs9840460 allele T DOMINANT Imputed, P(R) 1.18E−05
  OR(R): 0.499
rs9840756 allele A ADDITIVE Imputed, P 2.08E−05
  OR: 0.5268
rs9840756 allele A ADDITIVE Imputed, P(R) 2.08E−05
  OR(R): 0.5268
rs9840756 allele A DOMINANT Imputed, P 1.18E−05
  OR: 0.499
rs9840756 allele A DOMINANT Imputed, P(R) 1.18E−05
  OR(R): 0.499
rs9847999 allele C GENOTYPIC Imputed, P 9.15E−05
  OR: 2.0254
rs9847999 allele C GENOTYPIC Imputed, P(R) 9.15E−05
  OR(R): 2.0254
rs9859901 allele A vs C (ref)
  Meta-analysis OR: 0.52
rs9864769 allele C GENOTYPIC Imputed, P 7.67E−05
  OR: 2.0358
rs9864769 allele C GENOTYPIC Imputed, P(R) 7.67E−05
  OR(R): 2.0358
rs9866421 allele C RECESSIVE Genotyped, P 0.0009027
  OR: 0.6009
rs9866421 allele C RECESSIVE Genotyped, P(R) 0.0009027
  OR(R): 0.6009
rs9881685 allele A ADDITIVE Imputed, P 5.80E−06
  OR: 0.5122
rs9881685 allele A ADDITIVE Imputed, P(R) 5.80E−06
  OR(R): 0.5122
